In US8207135B2, “Compositions for and methods of enhancing the immune response to antigens” (Wittycell, priority 2007, dated 2012):
Some of these results come from one statement about several compounds together. At least one structure is not confirmed: it was looked up by name or label, or the drawing left a doubt.

Tested on: Ova-specific target cells
Assay: in vivo cytotoxic specific cell lysis assay (CD8+ T cell response) in immunized mice
Parameters: species or system mouse
Details: Example 5 Experiment B, FIG. 8; 50 μg OVA with 10 ng adjuvant intramuscularly

Row | SMILES | percentage of specific lysis of the target cells by CD8+ T cells
1 | CCCCCCCCCCCCCCCCCCCCCCCCCC(=O)N[C@@H](CO[C@H]1O[C@H](CNC(C)=O)[C@H](O)[C@H](O)[C@H]1O)[C@H](O)[C@H](O)CCCCCCCCCCCCCC [PBS-14] | over 60%
2 | CCCCCCCCCCCCCCCCCCCCCCCC(=O)N[C@@H](CO[C@H]1O[C@H](CNC(C)=O)[C@H](O)[C@H](O)[C@H]1O)[C@H](O)[C@H](O)CCCCCCCCCCCCCC [PBS-96] | over 60%
